Here are results for five targets from the supplement of paper PMC12819154, “High-throughput peptide-centric local stability assay extends protein–ligand identification to membrane proteins, tissues and bacteria” (Nature Structural & Molecular Biology, 2025).

The chains behind the UniProt entries cited, without tags or fusion partners. Where a name states a change or a piece, a line headed by the entry shows the natural chain unless it says otherwise.
UniProt Q3UKU1: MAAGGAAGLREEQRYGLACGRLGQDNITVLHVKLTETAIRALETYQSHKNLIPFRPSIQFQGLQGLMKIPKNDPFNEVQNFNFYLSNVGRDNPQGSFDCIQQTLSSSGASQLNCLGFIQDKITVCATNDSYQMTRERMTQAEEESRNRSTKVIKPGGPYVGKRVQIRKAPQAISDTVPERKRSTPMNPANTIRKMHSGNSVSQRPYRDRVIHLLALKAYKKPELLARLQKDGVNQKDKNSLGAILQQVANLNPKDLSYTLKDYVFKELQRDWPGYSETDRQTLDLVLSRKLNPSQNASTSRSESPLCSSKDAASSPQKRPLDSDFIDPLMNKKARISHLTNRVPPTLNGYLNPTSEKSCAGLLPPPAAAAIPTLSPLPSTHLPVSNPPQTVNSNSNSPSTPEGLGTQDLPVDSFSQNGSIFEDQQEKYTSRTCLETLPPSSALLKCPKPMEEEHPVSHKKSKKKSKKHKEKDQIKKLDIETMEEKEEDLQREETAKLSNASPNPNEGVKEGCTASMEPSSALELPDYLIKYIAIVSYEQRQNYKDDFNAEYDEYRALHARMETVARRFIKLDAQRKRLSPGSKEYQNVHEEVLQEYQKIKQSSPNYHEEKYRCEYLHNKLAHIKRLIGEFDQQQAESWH
UniProt Q5DTV4: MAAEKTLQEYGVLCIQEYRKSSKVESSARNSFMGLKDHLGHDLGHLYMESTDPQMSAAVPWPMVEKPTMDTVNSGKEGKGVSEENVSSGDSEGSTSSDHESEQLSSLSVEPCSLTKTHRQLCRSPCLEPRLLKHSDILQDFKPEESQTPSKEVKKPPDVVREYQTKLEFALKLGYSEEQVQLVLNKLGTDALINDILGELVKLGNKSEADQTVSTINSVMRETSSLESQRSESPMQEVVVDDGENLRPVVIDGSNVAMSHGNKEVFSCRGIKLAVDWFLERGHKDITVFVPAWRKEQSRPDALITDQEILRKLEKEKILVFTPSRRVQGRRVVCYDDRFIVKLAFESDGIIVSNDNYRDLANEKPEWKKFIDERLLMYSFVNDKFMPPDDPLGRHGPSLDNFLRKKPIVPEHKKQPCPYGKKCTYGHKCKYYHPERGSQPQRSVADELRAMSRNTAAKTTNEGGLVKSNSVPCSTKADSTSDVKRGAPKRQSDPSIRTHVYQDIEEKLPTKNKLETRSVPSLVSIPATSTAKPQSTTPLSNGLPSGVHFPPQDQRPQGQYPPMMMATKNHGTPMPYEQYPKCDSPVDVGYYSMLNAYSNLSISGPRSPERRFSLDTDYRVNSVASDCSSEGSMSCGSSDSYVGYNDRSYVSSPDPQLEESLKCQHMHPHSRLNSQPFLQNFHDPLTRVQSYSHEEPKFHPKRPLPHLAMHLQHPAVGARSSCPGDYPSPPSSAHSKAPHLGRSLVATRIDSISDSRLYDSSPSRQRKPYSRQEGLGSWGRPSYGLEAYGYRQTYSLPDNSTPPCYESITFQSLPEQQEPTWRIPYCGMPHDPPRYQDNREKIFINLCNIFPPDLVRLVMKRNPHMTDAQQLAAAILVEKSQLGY
UniProt Q3UZ18: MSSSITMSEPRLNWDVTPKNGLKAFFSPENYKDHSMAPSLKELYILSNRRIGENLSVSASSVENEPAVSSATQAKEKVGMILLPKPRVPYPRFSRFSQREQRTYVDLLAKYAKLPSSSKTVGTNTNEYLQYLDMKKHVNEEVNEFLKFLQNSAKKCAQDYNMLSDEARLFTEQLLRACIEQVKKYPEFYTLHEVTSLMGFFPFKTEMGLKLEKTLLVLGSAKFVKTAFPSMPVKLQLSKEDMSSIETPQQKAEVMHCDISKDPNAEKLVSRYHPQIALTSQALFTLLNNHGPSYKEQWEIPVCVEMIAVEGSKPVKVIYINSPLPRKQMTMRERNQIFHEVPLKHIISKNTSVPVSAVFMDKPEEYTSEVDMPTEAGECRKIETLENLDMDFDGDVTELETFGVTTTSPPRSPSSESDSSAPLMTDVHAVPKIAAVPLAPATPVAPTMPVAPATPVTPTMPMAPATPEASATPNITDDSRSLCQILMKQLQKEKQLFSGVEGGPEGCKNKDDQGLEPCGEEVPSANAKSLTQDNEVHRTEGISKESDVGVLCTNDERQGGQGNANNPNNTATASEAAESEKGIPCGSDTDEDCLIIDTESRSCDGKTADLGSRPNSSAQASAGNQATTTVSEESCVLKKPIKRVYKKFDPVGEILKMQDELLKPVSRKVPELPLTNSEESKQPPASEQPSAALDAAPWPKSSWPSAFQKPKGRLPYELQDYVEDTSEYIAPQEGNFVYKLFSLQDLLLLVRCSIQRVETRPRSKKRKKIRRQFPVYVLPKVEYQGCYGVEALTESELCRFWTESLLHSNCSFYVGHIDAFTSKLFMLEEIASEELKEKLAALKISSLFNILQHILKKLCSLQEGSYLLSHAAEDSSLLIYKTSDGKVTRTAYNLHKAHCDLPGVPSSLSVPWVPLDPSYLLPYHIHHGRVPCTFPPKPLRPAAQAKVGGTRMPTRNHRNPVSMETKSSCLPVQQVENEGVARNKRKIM
UniProt Q497V6: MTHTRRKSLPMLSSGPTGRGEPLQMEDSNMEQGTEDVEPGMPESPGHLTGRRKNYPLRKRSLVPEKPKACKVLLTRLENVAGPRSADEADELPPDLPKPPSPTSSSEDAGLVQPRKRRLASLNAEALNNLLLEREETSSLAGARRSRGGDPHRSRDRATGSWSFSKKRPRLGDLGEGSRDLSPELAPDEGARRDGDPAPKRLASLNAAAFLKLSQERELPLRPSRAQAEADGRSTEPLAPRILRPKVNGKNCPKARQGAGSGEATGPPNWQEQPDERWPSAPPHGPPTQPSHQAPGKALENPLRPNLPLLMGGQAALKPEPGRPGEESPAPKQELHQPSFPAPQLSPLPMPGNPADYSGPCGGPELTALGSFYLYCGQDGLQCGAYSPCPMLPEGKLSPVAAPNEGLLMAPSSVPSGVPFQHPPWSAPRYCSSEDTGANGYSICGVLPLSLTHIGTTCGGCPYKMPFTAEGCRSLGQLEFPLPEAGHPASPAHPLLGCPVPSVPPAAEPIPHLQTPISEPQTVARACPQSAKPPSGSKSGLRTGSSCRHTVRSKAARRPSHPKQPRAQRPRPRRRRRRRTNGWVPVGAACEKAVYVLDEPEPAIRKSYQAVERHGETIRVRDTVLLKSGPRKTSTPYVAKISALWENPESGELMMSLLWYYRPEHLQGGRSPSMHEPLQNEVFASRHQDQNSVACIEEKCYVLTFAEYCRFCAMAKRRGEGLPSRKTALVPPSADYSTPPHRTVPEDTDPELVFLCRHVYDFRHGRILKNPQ
UniProt Q3UG98: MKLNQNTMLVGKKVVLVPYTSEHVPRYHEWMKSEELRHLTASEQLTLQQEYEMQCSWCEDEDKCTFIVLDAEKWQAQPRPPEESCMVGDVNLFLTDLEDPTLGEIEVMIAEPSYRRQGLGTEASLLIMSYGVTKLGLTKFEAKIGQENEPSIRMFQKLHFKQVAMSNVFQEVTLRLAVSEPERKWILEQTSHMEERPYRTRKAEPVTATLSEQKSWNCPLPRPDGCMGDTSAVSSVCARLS

The list shows a part of the results. Most entries show no effect beyond the scatter of the controls.

Compound in this assay: CN[C@@H]1C[C@H]2O[C@@](C)([C@@H]1OC)n1c3ccccc3c3c4c(c5c6ccccc6n2c5c31)C(=O)NC4 [staurosporine]
In words: log2 fold change of tryptic peptide abundance, ligand vs vehicle (limited proteolysis) (log2 ratio); higher = more trypsin-susceptible (destabilized). To be noted: ligand concentration: 20 uM; sample: mouse liver crude lysate; replicate design: treated separately.
Take “UniProt Q3UKU1 (peptide sequence: YIAIVSYEQR, peptide start residue: 531)”: the log2 fold change was 0.0293. The result for “UniProt Q5DTV4 (peptide sequence: RQSDPSIR, peptide start residue: 490)” reads 0.122. The result for “UniProt Q3UZ18 (peptide sequence: SSWPSAFQKPK, peptide start residue: 701)” reads 0.273. The result for “UniProt Q497V6 (peptide sequence: SLVPEKPK, peptide start residue: 61)” reads -0.328; that for “UniProt Q3UG98 (peptide sequence: KAEPVTATLSEQK, peptide start residue: 202)”, -0.105.
